The list does not hold the whole screen: it gathers tests that were run many times, whatever their T/C, doses with no T/C, and many T/C values between a quarter and a half above the control. Other doses and runs of a compound stand elsewhere. T/C is the treated group as % of the vehicle group. Some doses have a count of surviving animals in place of a T/C: the source holds a T/C of zero for them, seemingly a mark for toxic or unscored doses. Some survivor counts are full or nearly so, which does not show that the dose was tolerated: the source hardly ever lists a survival T/C far under the control, and the zero likely stands for such cases as well. Counts of survivors are from the toxicity check (mostly the fifth day) where no day follows; animals may have died later. Schedule codes are those of the source, read here as Q, the interval in days (D) or hours (H), X, the number of doses. Some entries hold several experiments; the results are listed from low to high. Where survival is the endpoint, the PubChem record calls one and a half times the control and up active, and a quarter to a half above the control has no call in these data; cut-offs in other NCI protocols can differ. Some T/C values are followed by the survivors on the day toxicity was checked, most often the fifth; where none is given, no animal had died by that day.

The assay has as its system CD2F1 mice, L1210 leukemia ip, survival T/C. In words: NCI In Vivo Anticancer Drug Screen. Data for tumor model L1210 Leukemia (intraperitoneal) in CD2F1 (CDF1) mice. To be noted: higher T/C = longer survival. Summed up: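 Implant tumor; dose compound or vehicle; measure endpoint in both groups; report treated divided by control.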
The mark [1] stands for this setting: T/C endpoint: mean survival time, dose: 400.0 mg/kg/injection, schedule: Q01DX001 (ip), vehicle: saline.
Where [2] appears, read: T/C endpoint: mean survival time, dose: 100.0 mg/kg/injection, schedule: Q01DX001 (ip), vehicle: saline with Tween-80.
Where [3] appears, read: T/C endpoint: mean survival time, dose: 200.0 mg/kg/injection, schedule: Q01DX001 (ip), vehicle: saline with Tween-80.
Setting [4] is: T/C endpoint: mean survival time, dose: 100.0 mg/kg/injection, schedule: Q04DX003 (ip), vehicle: saline.
The mark [5] stands for this setting: T/C endpoint: mean survival time, dose: 200.0 mg/kg/injection, schedule: Q04DX003 (ip), vehicle: saline.
The mark [6] stands for this setting: T/C endpoint: mean survival time, dose: 400.0 mg/kg/injection, schedule: Q04DX003 (ip), vehicle: saline.
The mark [7] stands for this setting: T/C endpoint: mean survival time, dose: 200.0 mg/kg/injection, schedule: Q04DX003 (ip), vehicle: saline with Tween-80.
[8] abbreviates: T/C endpoint: mean survival time, dose: 400.0 mg/kg/injection, schedule: Q04DX003 (ip), vehicle: saline with Tween-80.
The mark [9] stands for this setting: T/C endpoint: mean survival time, dose: 150.0 mg/kg/injection, schedule: Q01DX001 (ip), vehicle: saline.
Setting [10] is: T/C endpoint: mean survival time, dose: 300.0 mg/kg/injection, schedule: Q01DX001 (ip), vehicle: saline.
[11] abbreviates: T/C endpoint: mean survival time, dose: 400.0 mg/kg/injection, schedule: Q04DX002 (ip), vehicle: saline with Tween-80.

As for `ON=c1c2ccccc2oc2ccccc12`, the survivor count (T/C endpoint: mean survival time, dose: 400.0 mg/kg/injection, schedule: Q04DX002 (ip), vehicle: Klucel (hydroxypropylcellulose) (HPC)) is listed as 1 of 3.

With `Clc1ccc2c(Cl)c3c(nc2c1)CCCC3`, under setting [1], the survivor count was 2 of 4.

Regarding `C=C(C)/C([O-])=N/[N+](C)(C)CC(O)CCCCCCCCCCCC` (centres undefined), the survivor count is 1 of 6 and 5 of 10 under setting [1]; 0 of 6 and 4 of 10 (T/C endpoint: mean survival time, dose: 800.0 mg/kg/injection, schedule: Q01DX001 (ip), vehicle: saline).

Take `Nc1ccn(C2OC(CO)C3[O][Sn]([c]4ccccc4)([c]4ccccc4)[O]C32)c(=O)n1` (centres undefined): the survivor count (T/C endpoint: mean survival time, dose: 25.0 mg/kg/injection, schedule: Q01DX005 (ip), vehicle: other) is 0 of 6; the survivor count (T/C endpoint: mean survival time, dose: 50.0 mg/kg/injection, schedule: Q01DX005 (ip), vehicle: other) was 0 of 6; the survivor count (T/C endpoint: mean survival time, dose: 100.0 mg/kg/injection, schedule: Q01DX005 (ip), vehicle: other) is given as 0 of 6; the survivor count (T/C endpoint: mean survival time, dose: 200.0 mg/kg/injection, schedule: Q01DX005 (ip), vehicle: other) was 0 of 6.

As to `CCCCCC(C)(C#N)CCCCC`, the survivor count (T/C endpoint: mean survival time, dose: 400.0 mg/kg/injection, schedule: Q01DX009 (ip), vehicle: saline with Tween-80) is 6 of 6.

On to `OCCc1ccccc1`, for which the survivor count by setting is: (T/C endpoint: mean survival time, dose: 400.0 mg/kg/injection, schedule: Q03HX024 (ip), vehicle: saline with Tween-80) 0 of 6; (T/C endpoint: mean survival time, dose: 1000.0 mg/kg/injection, schedule: Q01DX001 (ip), vehicle: saline with Tween-80) 0 of 6; (T/C endpoint: mean survival time, dose: 1000.0 mg/kg/injection, schedule: Q01DX009 (ip), vehicle: saline) 0 of 6; (T/C endpoint: mean survival time, dose: 2000.0 mg/kg/injection, schedule: Q01DX001 (ip), vehicle: saline with Tween-80) 0 of 6; (T/C endpoint: mean survival time, dose: 4000.0 mg/kg/injection, schedule: Q01DX001 (ip), vehicle: saline with Tween-80) 0 of 6.

Turning to `CCOC(=O)CN(N=O)C(c1ccccc1)(c1ccccc1)c1ccccc1`, the survivor count under setting [2] was 6 of 6; the survivor count under setting [3] is on record as 6 of 6; the survivor count (T/C endpoint: mean survival time, dose: 400.0 mg/kg/injection, schedule: Q01DX001 (ip), vehicle: saline with Tween-80) is given as 6 of 6.

As to `FC(F)(F)c1cccc(C(OCCN2CCCC2)c2ccccc2)c1` (centres undefined), the survivor count by setting is: under setting [4], 0 of 6; under setting [5], 0 of 6; under setting [6], 0 of 6.

For `CCC1CCC2C(CCC3(N(C)C)CCC(OC)C(OC)C23)C1` (centres undefined), the survivor count runs as follows: (T/C endpoint: mean survival time, dose: 50.0 mg/kg/injection, schedule: Q01DX001 (ip), vehicle: saline with Tween-80) 1 of 6; under setting [2], 0 of 6; under setting [3], 0 of 6.

Regarding `Oc1ccc(C=NCCN=Cc2ccc(O)cc2O)c(O)c1`, the T/C by setting is: (T/C endpoint: mean survival time, dose: 6.25 mg/kg/injection, schedule: Q01DX009 (ip), vehicle: saline with Tween-80) 128 % of control; (T/C endpoint: mean survival time, dose: 12.5 mg/kg/injection, schedule: Q01DX009 (ip), vehicle: saline with Tween-80) 134 % of control. Moreover, the survivor count is reported as 6 of 6 (T/C endpoint: mean survival time, dose: 50.0 mg/kg/injection, schedule: Q01DX009 (ip), vehicle: saline with Tween-80) and 6 of 6 under setting [7].

For `Nc1ncnc(N)c1NC(=O)c1cccc(Cl)c1`, the survivor count under setting [7] is 0 of 6 and the survivor count under setting [8] is 1 of 6.

For the compound `CN(Cc1cnc2nc(N)nc(N)c2n1)c1ccc(C(=O)NC(CCC(N)=O)C(=O)O)cc1` (centres undefined), the T/C was 139 % of control (T/C endpoint: mean survival time, dose: 25.0 mg/kg/injection, schedule: Q01DX009 (ip), vehicle: sodium bicarbonate) and 143 % of control (T/C endpoint: mean survival time, dose: 120.0 mg/kg/injection, schedule: Q04DX003 (ip), vehicle: sodium bicarbonate). Also, the survivor count is, setting by setting: (T/C endpoint: mean survival time, dose: 100.0 mg/kg/injection, schedule: Q01DX009 (ip), vehicle: sodium bicarbonate) 6 of 6; (T/C endpoint: mean survival time, dose: 200.0 mg/kg/injection, schedule: Q01DX009 (ip), vehicle: sodium bicarbonate) 3 of 6.

With `Cc1cc(C)c2ccc(N)nc2n1`, the survivor count is, setting by setting: (T/C endpoint: mean survival time, dose: 75.0 mg/kg/injection, schedule: Q01DX001 (ip), vehicle: saline) 0 of 6; under setting [9], 0 of 6; under setting [10], 0 of 6.

As for `Cc1cc(NCCCCCCCCNc2cc(C)nc3cc(N(C)C)ccc23)c2ccc(N(C)C)cc2n1`, the T/C is 125 % of control (T/C endpoint: median survival time, dose: 6.25 mg/kg/injection, schedule: Q01DX009 (ip), vehicle: distilled water + Tween-80 + alcohol); 135 % of control (T/C endpoint: median survival time, dose: 12.5 mg/kg/injection, schedule: Q01DX009 (ip), vehicle: distilled water + Tween-80 + alcohol); 137 % of control (T/C endpoint: median survival time, dose: 25.0 mg/kg/injection, schedule: Q01DX009 (ip), vehicle: distilled water + Tween-80 + alcohol); 134 % of control [5 of 6 alive] (T/C endpoint: median survival time, dose: 25.0 mg/kg/injection, schedule: Q01DX009 (ip), vehicle: distilled water + Tween-80). For the same compound, the survivor count (T/C endpoint: median survival time, dose: 50.0 mg/kg/injection, schedule: Q01DX009 (ip), vehicle: distilled water + Tween-80 + alcohol) is listed as 0 of 6 and the survivor count (T/C endpoint: median survival time, dose: 50.0 mg/kg/injection, schedule: Q01DX009 (ip), vehicle: distilled water + Tween-80) was 0 of 6.

Consider `N#CSCc1ccc(Cl)c(CSC#N)c1`, for which the survivor count runs as follows: under setting [9], 2 of 6; under setting [10], 1 of 6.

On to `CC(=O)Oc1ccccc1C(CC(C)C)OC(C)=O` (centres undefined), for which, under setting [1], the survivor count is 3 of 6.

In the case of `COc1ccc(NC(=O)Oc2ccc(C(C)(C)C)cc2)cc1`, the survivor count was 3 of 3 (T/C endpoint: mean survival time, dose: 200.0 mg/kg/injection, schedule: Q04DX002 (ip), vehicle: saline with Tween-80) and 2 of 3 under setting [11].

Turning to `COc1cc(N2C(N)=NC(N)=NC2(C)C)cc(OC)c1OC`, the survivor count was 2 of 6 under setting [4], 0 of 6 under setting [5] and 0 of 6 under setting [6].

As for `O=c1[nH]c2ccccc2nc1C(Cl)Cl`, the survivor count is 2 of 6 (T/C endpoint: mean survival time, dose: 200.0 mg/kg/injection, schedule: Q01DX009 (ip), vehicle: Klucel (hydroxypropylcellulose) (HPC)); 1 of 6 (T/C endpoint: mean survival time, dose: 400.0 mg/kg/injection, schedule: Q04DX003 (ip), vehicle: Klucel (hydroxypropylcellulose) (HPC)); 2 of 6 (T/C endpoint: median survival time, dose: 400.0 mg/kg/injection, schedule: Q04DX003 (ip), vehicle: Klucel (hydroxypropylcellulose) (HPC)).

Regarding `O=C1C(Sc2ccc3ccccc3c2)=C(Sc2ccc3ccccc3c2)C(=O)c2ccccc21`, the survivor count (T/C endpoint: mean survival time, dose: 100.0 mg/kg/injection, schedule: Q04DX003 (ip), vehicle: saline with Tween-80) is 5 of 6.

Regarding `CC(C(C(=O)O)S(=O)(=O)O)C(C(=O)O)S(=O)(=O)O` (centres undefined), the survivor count (T/C endpoint: mean survival time, dose: 100.0 mg/kg/injection, schedule: Q01DX001 (ip), vehicle: other) is 0 of 3; the survivor count (T/C endpoint: mean survival time, dose: 200.0 mg/kg/injection, schedule: Q01DX001 (ip), vehicle: other) is given as 0 of 3; the survivor count (T/C endpoint: mean survival time, dose: 400.0 mg/kg/injection, schedule: Q01DX001 (ip), vehicle: other) is 0 of 3.

Take `NC(=O)C1=CC2C3C=CC2(O)C(=O)OC3O1` (centres undefined): the T/C (T/C endpoint: median survival time, dose: 3.75 mg/kg/injection, schedule: Q01DX009 (ip), vehicle: Klucel (hydroxypropylcellulose) (HPC)) was 125 % of control and the T/C (T/C endpoint: median survival time, dose: 15.0 mg/kg/injection, schedule: Q01DX009 (ip), vehicle: Klucel (hydroxypropylcellulose) (HPC)) was 142 % of control. Also, the survivor count (T/C endpoint: median survival time, dose: 60.0 mg/kg/injection, schedule: Q01DX009 (ip), vehicle: Klucel (hydroxypropylcellulose) (HPC)) is reported as 0 of 6.

Regarding `CC(C)(C)OC(=O)N1CCCC1C(=O)Oc1ccc([N+](=O)[O-])cc1` (centres undefined), the survivor count reads like this: under setting [7], 6 of 6; under setting [8], 6 of 6.

`COc1cc(C=C(c2ccc(N(C)C)cc2)c2ccc(N(C)C)cc2)c(OC)c2ccccc12`: the survivor count under setting [11] was 3 of 3.

Consider `CN(C)CC(Cl)CCl` (centres undefined), for which the survivor count (T/C endpoint: mean survival time, dose: 400.0 mg/kg/injection, schedule: Q01DX009 (ip), vehicle: saline) is 0 of 10 and 3 of 6.

The values above are taken from PubChem BioAssay AID256 (DTP/NCI, 2004).
